# In all, about 300,000 compounds went through this assay and about 5,400 (1.8%) were called active. The shares of active, inactive and inconclusive entries below differ from those in the screen. The call rests on the fitted dose curve; tested in HEK293 cells. A potency beside an inconclusive call is a rough fit, not a confirmed value. Some structures have more than one record in an assay (separate samples or runs), and their calls can disagree.
# Assay: qHTS for inhibitors of binding or entry into cells for Marburg Virus
# Conditions: Marburg virus pseudotyped entry inhibition, cell reporter; series mostly up to 37.8 µM
# Potency means the concentration at half of the fitted maximal effect.
row,Compound,Potency
1,Cc1nn(Cc2ccccc2)c(C)c1C(=O)OCC(=O)NC1CCS(=O)(=O)C1 (stereo not given),"inconclusive: 0.794 µM [activator, full curve, poor fit]"
2,CCOc1ccc(S(=O)(=O)NCCC(=O)N2CCC(Cc3ccccc3)CC2)cc1,"inconclusive: 22.4 µM [inhibitor, partial curve, poor fit]"
3,O=C(COC(=O)c1ccc(O)cc1O)NC(=O)Cc1ccccc1,"inconclusive: 35.5 µM [activator, single point]"
4,COc1cc(CN2CCN(c3cccc(C)c3C)CC2)cc(Br)c1O,"inconclusive: 29.1 µM [inhibitor, single point]"
5,Cc1c(/C=N\NC(=O)c2c[nH]c3ccccc23)cnn1C,"inconclusive: 35.5 µM [activator, single point]"
6,CC1(C(=O)OCC(=O)Nc2ccccc2Cl)CC1(Cl)Cl (stereo not given),inactive
7,CCOc1cc(NC(=S)NCc2ccco2)c(OCC)cc1NC(=O)c1ccco1,"inconclusive: 0.501 µM [inhibitor, full curve, poor fit]"
8,CCC(=O)Nc1cc(C(=O)OCC(=O)c2ccccc2)ccc1C,inactive
9,Cc1cc(-c2nnc(SCC(=O)Nc3ccccc3)n2C)no1,"inconclusive: 3.98 µM [activator, full curve, poor fit]"
10,Cc1ncc(CO)c(/C=N/NC(=O)c2ccccc2Br)c1O,"inconclusive: 35.5 µM [inhibitor, single point]"
11,Cc1cc(C(=O)NNc2ccccc2F)no1,"inconclusive: 3.55 µM [inhibitor, single point]"
12,CC(=O)Nc1ccccc1C(=O)N1CCN(Cc2ccccc2)CC1,"inconclusive: 6.51 µM [inhibitor, single point]"
13,CCCc1c(C(=O)NNc2ccccc2OC)cnn1-c1ccccc1,"inconclusive: 0.562 µM [inhibitor, full curve, poor fit]"
14,CCOC(=O)c1c(C)nc2c3ccccc3ccn12,"inconclusive: 35.5 µM [inhibitor, single point]"
15,COCCn1c(C)cc(C(=O)COC(=O)c2[nH]c(C)c(C(C)=O)c2C)c1C,inactive
16,CCc1ccc(NC(=S)N(CCN2CCOCC2)Cc2ccccc2F)cc1,"inconclusive: 0.891 µM [inhibitor, full curve, poor fit]"
17,O=c1[nH]c(C2CCCN(S(=O)(=O)c3ccccc3)C2)nc2c1nnn2Cc1cccc(Cl)c1 (stereo not given),"inconclusive: 15.8 µM [inhibitor, single point]"
18,Nc1c(C(=O)NCCc2ccccc2)nnn1Cc1ccccc1,"inconclusive: 29.1 µM [activator, single point]"
19,CN(C)/C=N/C(=S)Nc1ccc(Br)cc1F,inactive
20,COc1cccc(C=NNc2ccc([N+](=O)[O-])cn2)c1OC,inactive
21,C=CCOc1ccc(/C=N/N2C(=O)C(CC(=O)Nc3ccc(F)cc3F)SC2=NC)cc1 (stereo not given),"inconclusive: 0.316 µM [activator, full curve, poor fit]"
22,Cc1cc(S(=O)(=O)N(Cc2cccs2)Cc2ccccc2F)ccc1-n1cnnn1,"inconclusive: 16.4 µM [inhibitor, partial curve, poor fit]"
23,Cc1ccc(C(=O)NCC2CCCN2S(=O)(=O)c2ccc(C)cc2)cc1 (stereo not given),inactive
24,CCc1cccc(NC(=O)Cc2cn(C)c3ccccc23)c1,"inconclusive: 29.1 µM [inhibitor, single point]"

# In another format: four of the compounds above.
row | Compound | Potency
1 | Cc1nn(Cc2ccccc2)c(C)c1C(=O)OCC(=O)NC1CCS(=O)(=O)C1 (stereo not given) | inconclusive: 0.794 µM [activator, full curve, poor fit]
2 | CCOc1ccc(S(=O)(=O)NCCC(=O)N2CCC(Cc3ccccc3)CC2)cc1 | inconclusive: 22.4 µM [inhibitor, partial curve, poor fit]
3 | O=C(COC(=O)c1ccc(O)cc1O)NC(=O)Cc1ccccc1 | inconclusive: 35.5 µM [activator, single point]
4 | COc1cc(CN2CCN(c3cccc(C)c3C)CC2)cc(Br)c1O | inconclusive: 29.1 µM [inhibitor, single point]

# Next structures follow:

row,Compound,Potency
1,Cc1ccc2c(c1)/C(=C/c1ccccc1C)C(=O)N2,active: 11.2 µM
2,Cc1ccc(NC(=S)N2CCSC2c2cccs2)cc1 (stereo not given),"inconclusive: 11.2 µM [inhibitor, partial curve, poor fit]"
3,C/C(CC(=O)Nc1cc(C)ccn1)=N\NC(=O)c1cccc(F)c1,"inconclusive: 6.31 µM [activator, full curve, poor fit]"
4,Cc1ccc(OCCCC(=O)Nc2ccccc2C(F)(F)F)cc1,inactive
5,Cc1cc2nn(-c3ccccc3)nc2cc1NC(=O)c1cccc2c(Cl)cccc12,inactive
6,COC(=O)C1Cc2c([nH]c3ccccc23)CN1 (stereo not given),"inconclusive: 0.184 µM [activator, full curve, poor fit]"
7,CC[n+]1c(/C=C/c2ccc(N(C)C)cc2)ccc2ccccc21,active: 1.64 µM
8,Cc1[nH]c2ccc(OC(F)(F)F)cc2c1CCNCc1ccc(Cl)cc1,"inconclusive: 11.2 µM [inhibitor, partial curve, poor fit]"
9,CCN1C(=O)C(CC(=O)Nc2ccc(Br)cc2)N(CCCc2ccccc2)C1=S (stereo not given),"inconclusive: 20 µM [inhibitor, partial curve, poor fit]"
10,CCCCNC(=O)c1ccc(N2CCOCC2)c(NS(=O)(=O)c2ccc(OC)cc2)c1,inactive
11,COc1ccc(N(CC(=O)N/N=C/c2cccs2)S(=O)(=O)c2ccccc2)cc1,inactive
12,CCCOc1ccc(Oc2nc(-c3ccncc3)nc3ccccc23)cc1,"inconclusive: 1.78 µM [inhibitor, partial curve, poor fit]"
13,c1csc(-c2ccc3ccccc3n2)c1,"inconclusive: 11.2 µM [activator, partial curve, poor fit]"
14,COc1ccc(OC(C)C(=O)NC2CCCCCC2)cc1 (stereo not given),inactive
15,c1ccc(-n2c(Cc3cn4ccsc4n3)nnc2N2CCOCC2)cc1,"inconclusive: 0.58 µM [inhibitor, full curve, poor fit]"
16,COc1ccc(N2C(=O)C3[C@@H](C2=O)C2(Cl)C(Cl)=C(Cl)C3(Cl)C2(OC)OC)cc1 (stereo not given in full),inactive
17,Cc1cccc(-c2ccc(NC(=O)C3CCN(CC4CC4)CC3)cc2)c1,"inconclusive: 8.91 µM [inhibitor, partial curve, poor fit]"
18,O=C(c1cn(Cc2ccccc2)nc1-c1ccc(Cl)cc1)N1CCN(c2ccccn2)CC1,"inconclusive: 35.5 µM [inhibitor, single point]"
19,c1ccc2c(c1)OCCOCCOCCOCCOCCOc1ccccc1OCCOCCOCCO2,"inconclusive: 0.708 µM [inhibitor, partial curve, poor fit]"
20,CC(NC(=O)c1cc(=O)[nH]c2ccccc12)c1ccc(F)cc1F (stereo not given),"inconclusive: 2.24 µM [inhibitor, partial curve, poor fit]"
21,NC1(C(=O)O)CCc2cc(C(=O)O)ccc21 (stereo not given),inactive
22,CC(=O)N1CCc2cc(S(=O)(=O)NC(C(=O)Nc3ccc(C)cc3C)C(C)C)ccc21 (stereo not given),inactive
23,COc1ccc(NC(=O)c2ccc(-n3c(C)ccc3C)cc2)c(OC)c1,"inconclusive: 35.5 µM [inhibitor, single point]"
24,CCn1nnc2cc(C(=O)NCCc3ccccc3F)ccc21,active: 6.31 µM

row,Compound,Potency
1,CC(C)[C@@H](N)C(=O)NCC1CCC(C(=O)N[C@@H](Cc2ccccc2)C(=O)O)CC1 (stereo not given in full),"inconclusive: 5.01 µM [inhibitor, single point]"
2,CCCc1cc(C(=O)N/N=C/c2ccc(CC)s2)c2ccccc2n1,"inconclusive: 0.562 µM [inhibitor, full curve, poor fit]"
3,COc1ccc(NC(=O)C2CCCN(S(=O)(=O)c3ccc(Br)s3)C2)cc1 (stereo not given),inactive
4,O=C(c1ccc2oc(Cc3ccc(Cl)cc3)nc2c1)N1CCCCC1CCO (stereo not given),inactive
5,NC(CO)C(=O)NNCc1ccc(O)c(O)c1O (stereo not given),active: 5.01 µM
6,CC1OC(CC(=O)O)CC2=C1C(=O)c1c(O)cccc1C2=O (stereo not given),active: 0.501 µM
7,CCCCNC(=O)N(O)C1N(CCCC)C(=O)N(CC(=O)OC)C1(C)C (stereo not given),inactive
8,CCN(CC)c1ccc(N=Cc2c(O)n(CCc3ccc(OC)c(OC)c3)c(=O)[nH]c2=O)cc1,active: 2.82 µM
9,CCOc1ccc2nc(NCCNC(=O)C3CC3)c(C)cc2c1,"inconclusive: 20 µM [activator, single point]"
10,COc1ccc(NC(=O)C2C(=O)NC3(C)CC2c2ccccc2O3)cc1 (stereo not given),"inconclusive: 35.5 µM [inhibitor, partial curve, poor fit]"
11,O=C(CNC(=O)c1ccccc1Br)N/N=C/c1cccnc1,inactive
12,COc1ccc(NC(=O)CSc2nnc3ccc(-c4cccnc4)nn23)cc1,inactive
13,O=[N+]([O-])c1ccc(OC/C=C2\Oc3ccc([N+](=O)[O-])cc3C2N2CCOCC2)cc1 (stereo not given),"inconclusive: 17.8 µM [inhibitor, partial curve, poor fit]"
14,COc1ccccc1N1CCN(CC(=O)Nc2ccc(CN3CCCCC3)cc2)CC1,"inconclusive: 29.1 µM [inhibitor, single point]"
15,CCn1c(=O)c(=O)[nH]c2cc(C(=O)Nc3ccc(S(=O)(=O)N4CCCC4)cc3)ccc21,inactive
16,COc1ccc(-n2c(=S)[nH]c3cc(C(=O)Nc4ccc(C)c(F)c4)ccc3c2=O)c(OC)c1,"inconclusive: 35.5 µM [inhibitor, single point]"
17,COC(=O)c1c(NC(=O)CCNCc2ccco2)sc2c1CCC2,"inconclusive: 28.2 µM [inhibitor, single point]"
18,Oc1ccc(CNc2ccccc2F)c2cccnc12,"inconclusive: 14.6 µM [inhibitor, partial curve, poor fit]"
19,CN(C)c1nc(-c2ccccc2)[n+](C)s1,"inconclusive: 3.55 µM [activator, full curve]"
20,O=C(c1cnccn1)N(c1ccccc1)C1(C(=O)NC2CCCCC2)CCCCC1,"inconclusive: 28.2 µM [inhibitor, single point]"
21,COc1ccc(CCN2CCCC(CN(C)Cc3cccc(OC)c3)C2)cc1 (stereo not given),"inconclusive: 8.91 µM [inhibitor, partial curve, poor fit]"
22,Cn1c(N)nc2ccccc2c1=O,inactive
